Source: patent US8703918
Results are given in words; binding and its absence hold for the method and conditions named. Some entries that bind do so weakly or less than the wild type.

Chains of the proteins cited; added tags and fusions are not shown.
UniProt Q04609: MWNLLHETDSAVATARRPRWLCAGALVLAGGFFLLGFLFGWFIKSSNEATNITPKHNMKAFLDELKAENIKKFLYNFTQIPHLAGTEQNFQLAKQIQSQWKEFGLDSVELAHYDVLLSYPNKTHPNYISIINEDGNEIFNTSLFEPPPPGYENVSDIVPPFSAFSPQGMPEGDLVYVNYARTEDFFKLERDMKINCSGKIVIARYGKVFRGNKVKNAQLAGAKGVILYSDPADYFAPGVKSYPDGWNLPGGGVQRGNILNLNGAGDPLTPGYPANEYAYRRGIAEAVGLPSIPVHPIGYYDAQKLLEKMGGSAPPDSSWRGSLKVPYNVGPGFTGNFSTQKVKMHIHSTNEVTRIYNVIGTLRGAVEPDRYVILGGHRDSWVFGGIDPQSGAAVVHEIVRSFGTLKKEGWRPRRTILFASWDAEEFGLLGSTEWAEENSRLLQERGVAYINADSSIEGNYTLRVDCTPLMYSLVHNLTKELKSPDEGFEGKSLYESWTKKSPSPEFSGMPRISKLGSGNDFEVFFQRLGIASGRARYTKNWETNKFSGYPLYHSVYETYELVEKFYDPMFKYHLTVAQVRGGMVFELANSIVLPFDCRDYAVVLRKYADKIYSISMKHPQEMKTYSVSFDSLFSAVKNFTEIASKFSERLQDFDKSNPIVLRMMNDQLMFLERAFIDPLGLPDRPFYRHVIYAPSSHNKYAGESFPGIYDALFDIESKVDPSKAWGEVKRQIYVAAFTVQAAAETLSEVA

Legend:
[1] = molecular target: prostate specific membrane antigen (PSMA) (human) (UniProt Q04609); experiment: Western blot on LNCaP (PSMA+) cell lysate
[2] = molecular target: prostate specific membrane antigen (PSMA) (human) (UniProt Q04609); experiment: immunofluorescence on fixed LNCaP cells, 10 ug/ml antibody
[3] = molecular target: prostate specific membrane antigen (PSMA) (human) (UniProt Q04609); experiment: flow cytometry binding curve on LNCaP cells

Measured: binding

B1: monoclonal antibody D2/B (antibody, V domains shown)
VH: EVKLQESGPGLVKPSQSLSLTCSVTGYSITSGYYWNWIRQFPGNKLEWMGSISFDGNNNYNPSLRNRISITRDTSKNQFFLKLNSVTTEDTATYYCAREGDYYGSSFFTYWGQGTLVTVS
VL: DIVMTQSPASLSASVGETVTLTCGASENIYGALNWYQRKQGKSPQLLIYGATNLADGMSSRFSGSGSGRQYSLKISSLHPDDVATYYCQNVFRTYTFGGGTKLEIKR
binds: all assays above
